Here are results for five substances from PMC4510711.

Chains of the proteins cited; added tags and fusions are not shown.
UniProt A5YKK6: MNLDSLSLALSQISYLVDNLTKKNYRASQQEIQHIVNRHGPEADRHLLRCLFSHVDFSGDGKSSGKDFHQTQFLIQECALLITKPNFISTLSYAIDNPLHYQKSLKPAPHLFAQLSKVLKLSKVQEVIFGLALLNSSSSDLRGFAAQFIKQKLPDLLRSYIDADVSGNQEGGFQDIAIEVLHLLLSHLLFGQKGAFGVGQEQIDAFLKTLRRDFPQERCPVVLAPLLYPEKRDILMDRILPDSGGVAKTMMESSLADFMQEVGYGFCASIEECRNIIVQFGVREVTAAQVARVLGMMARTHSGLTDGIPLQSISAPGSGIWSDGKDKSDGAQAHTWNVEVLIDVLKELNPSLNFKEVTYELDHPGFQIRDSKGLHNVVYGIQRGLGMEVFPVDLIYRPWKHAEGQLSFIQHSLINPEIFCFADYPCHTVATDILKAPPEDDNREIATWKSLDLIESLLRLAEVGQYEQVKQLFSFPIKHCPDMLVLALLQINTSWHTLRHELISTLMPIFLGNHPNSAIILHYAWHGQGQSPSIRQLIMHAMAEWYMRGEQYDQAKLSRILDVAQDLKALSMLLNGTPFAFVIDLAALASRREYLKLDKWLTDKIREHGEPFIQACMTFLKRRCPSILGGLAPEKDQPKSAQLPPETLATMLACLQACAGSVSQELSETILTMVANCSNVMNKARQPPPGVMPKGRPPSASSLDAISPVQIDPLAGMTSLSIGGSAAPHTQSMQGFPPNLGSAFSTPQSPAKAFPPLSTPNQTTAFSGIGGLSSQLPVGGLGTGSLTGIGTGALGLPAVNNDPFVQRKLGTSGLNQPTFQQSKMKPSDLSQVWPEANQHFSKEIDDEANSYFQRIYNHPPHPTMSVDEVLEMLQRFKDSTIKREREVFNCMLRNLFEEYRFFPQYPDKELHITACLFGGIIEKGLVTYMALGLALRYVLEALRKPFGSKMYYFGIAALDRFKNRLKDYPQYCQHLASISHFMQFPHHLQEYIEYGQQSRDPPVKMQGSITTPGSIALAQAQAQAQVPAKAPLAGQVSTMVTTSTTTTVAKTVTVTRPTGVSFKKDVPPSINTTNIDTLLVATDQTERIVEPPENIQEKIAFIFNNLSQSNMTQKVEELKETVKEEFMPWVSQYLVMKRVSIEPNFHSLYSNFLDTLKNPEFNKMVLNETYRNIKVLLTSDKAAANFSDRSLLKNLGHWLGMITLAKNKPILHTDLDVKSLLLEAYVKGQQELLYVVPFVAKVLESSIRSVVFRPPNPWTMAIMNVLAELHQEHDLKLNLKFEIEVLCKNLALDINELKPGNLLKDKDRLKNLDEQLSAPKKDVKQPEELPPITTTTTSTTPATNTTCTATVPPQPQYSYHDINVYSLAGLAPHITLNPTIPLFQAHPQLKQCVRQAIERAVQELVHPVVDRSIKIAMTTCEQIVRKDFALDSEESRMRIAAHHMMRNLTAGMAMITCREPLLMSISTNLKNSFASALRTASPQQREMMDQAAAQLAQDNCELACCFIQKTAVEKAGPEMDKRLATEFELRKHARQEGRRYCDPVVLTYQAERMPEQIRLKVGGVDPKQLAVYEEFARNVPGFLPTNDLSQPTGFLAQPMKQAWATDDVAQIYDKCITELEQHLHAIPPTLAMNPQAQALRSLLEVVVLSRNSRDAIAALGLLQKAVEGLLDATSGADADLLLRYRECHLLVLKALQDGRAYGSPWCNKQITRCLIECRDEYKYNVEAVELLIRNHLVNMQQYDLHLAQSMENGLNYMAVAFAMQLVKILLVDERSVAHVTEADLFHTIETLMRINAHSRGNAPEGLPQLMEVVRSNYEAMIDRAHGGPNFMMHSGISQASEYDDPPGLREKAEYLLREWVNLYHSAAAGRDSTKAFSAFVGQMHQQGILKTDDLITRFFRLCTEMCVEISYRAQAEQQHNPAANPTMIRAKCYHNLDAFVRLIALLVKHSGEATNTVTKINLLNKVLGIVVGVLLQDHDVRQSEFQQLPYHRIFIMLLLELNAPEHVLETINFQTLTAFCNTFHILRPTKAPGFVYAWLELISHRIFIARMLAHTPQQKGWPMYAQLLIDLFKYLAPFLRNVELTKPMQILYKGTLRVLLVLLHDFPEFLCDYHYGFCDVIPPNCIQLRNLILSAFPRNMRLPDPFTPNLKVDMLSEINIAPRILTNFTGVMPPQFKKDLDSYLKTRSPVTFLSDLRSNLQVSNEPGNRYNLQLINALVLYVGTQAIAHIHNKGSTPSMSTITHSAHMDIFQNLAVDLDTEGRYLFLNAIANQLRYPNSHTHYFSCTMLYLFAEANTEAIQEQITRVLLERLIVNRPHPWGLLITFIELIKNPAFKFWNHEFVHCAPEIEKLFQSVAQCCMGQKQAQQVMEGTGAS
UniProt Q9NZN8: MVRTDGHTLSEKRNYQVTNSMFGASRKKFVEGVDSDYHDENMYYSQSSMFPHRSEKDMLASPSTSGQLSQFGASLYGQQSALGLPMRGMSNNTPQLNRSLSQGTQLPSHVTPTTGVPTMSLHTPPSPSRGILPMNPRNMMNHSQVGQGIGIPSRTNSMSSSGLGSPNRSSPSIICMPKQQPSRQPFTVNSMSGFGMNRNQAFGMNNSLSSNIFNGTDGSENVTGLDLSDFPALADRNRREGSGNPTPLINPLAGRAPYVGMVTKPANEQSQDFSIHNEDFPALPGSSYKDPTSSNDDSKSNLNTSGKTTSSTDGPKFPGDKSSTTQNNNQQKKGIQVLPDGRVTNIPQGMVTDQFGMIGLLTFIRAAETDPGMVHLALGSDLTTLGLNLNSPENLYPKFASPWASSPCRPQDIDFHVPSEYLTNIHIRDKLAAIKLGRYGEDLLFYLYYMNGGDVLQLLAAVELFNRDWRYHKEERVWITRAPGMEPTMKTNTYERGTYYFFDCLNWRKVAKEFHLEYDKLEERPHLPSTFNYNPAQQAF
UniProt O75175: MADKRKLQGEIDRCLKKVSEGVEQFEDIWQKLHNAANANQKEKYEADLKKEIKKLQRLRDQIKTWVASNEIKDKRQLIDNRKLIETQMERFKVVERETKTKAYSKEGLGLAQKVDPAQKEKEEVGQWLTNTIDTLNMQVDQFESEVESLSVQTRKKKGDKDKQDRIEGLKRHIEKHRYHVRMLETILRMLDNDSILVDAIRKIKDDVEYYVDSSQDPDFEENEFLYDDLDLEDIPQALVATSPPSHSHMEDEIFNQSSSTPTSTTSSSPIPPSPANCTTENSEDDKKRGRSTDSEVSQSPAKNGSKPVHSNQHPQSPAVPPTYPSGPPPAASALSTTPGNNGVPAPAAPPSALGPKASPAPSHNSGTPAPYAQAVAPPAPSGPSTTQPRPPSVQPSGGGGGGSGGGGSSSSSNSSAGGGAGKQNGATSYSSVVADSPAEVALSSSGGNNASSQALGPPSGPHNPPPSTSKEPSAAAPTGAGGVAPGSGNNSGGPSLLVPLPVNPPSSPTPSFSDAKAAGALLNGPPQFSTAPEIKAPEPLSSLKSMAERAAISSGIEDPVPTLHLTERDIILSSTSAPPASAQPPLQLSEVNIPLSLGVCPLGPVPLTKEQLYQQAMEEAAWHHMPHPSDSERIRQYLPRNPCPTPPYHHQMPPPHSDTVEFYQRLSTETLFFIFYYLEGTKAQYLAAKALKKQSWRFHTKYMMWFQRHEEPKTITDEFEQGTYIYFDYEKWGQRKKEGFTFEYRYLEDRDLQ
UniProt Q9UIV1: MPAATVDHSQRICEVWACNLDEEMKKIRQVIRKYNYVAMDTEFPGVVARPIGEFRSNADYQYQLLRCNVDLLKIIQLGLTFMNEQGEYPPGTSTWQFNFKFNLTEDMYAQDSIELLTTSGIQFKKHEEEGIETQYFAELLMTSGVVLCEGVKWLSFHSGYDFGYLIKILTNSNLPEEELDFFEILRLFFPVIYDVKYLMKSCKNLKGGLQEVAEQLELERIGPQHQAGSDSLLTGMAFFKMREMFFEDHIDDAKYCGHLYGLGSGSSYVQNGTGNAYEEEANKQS
UniProt Q9UFF9: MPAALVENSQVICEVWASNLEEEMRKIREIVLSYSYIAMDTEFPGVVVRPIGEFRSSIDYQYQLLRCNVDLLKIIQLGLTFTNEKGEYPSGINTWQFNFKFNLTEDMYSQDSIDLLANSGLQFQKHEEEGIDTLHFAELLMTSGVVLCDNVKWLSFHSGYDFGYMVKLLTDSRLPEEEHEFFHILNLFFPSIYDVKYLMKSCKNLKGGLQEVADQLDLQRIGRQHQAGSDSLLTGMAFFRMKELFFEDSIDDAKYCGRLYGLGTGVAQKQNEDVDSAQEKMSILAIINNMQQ

Results are given in words; binding and its absence hold for the method and conditions named. In cells and extracts the contact can be indirect. A yes stands for co-enrichment or nearness to the bait. Other partners may have been found. Tags and fused reporters may be left off the sequences shown.

The target in the assay is T1, FLAG/HA-tagged RC3H1 (human) (UniProt Q5TC82).
T1 sequence: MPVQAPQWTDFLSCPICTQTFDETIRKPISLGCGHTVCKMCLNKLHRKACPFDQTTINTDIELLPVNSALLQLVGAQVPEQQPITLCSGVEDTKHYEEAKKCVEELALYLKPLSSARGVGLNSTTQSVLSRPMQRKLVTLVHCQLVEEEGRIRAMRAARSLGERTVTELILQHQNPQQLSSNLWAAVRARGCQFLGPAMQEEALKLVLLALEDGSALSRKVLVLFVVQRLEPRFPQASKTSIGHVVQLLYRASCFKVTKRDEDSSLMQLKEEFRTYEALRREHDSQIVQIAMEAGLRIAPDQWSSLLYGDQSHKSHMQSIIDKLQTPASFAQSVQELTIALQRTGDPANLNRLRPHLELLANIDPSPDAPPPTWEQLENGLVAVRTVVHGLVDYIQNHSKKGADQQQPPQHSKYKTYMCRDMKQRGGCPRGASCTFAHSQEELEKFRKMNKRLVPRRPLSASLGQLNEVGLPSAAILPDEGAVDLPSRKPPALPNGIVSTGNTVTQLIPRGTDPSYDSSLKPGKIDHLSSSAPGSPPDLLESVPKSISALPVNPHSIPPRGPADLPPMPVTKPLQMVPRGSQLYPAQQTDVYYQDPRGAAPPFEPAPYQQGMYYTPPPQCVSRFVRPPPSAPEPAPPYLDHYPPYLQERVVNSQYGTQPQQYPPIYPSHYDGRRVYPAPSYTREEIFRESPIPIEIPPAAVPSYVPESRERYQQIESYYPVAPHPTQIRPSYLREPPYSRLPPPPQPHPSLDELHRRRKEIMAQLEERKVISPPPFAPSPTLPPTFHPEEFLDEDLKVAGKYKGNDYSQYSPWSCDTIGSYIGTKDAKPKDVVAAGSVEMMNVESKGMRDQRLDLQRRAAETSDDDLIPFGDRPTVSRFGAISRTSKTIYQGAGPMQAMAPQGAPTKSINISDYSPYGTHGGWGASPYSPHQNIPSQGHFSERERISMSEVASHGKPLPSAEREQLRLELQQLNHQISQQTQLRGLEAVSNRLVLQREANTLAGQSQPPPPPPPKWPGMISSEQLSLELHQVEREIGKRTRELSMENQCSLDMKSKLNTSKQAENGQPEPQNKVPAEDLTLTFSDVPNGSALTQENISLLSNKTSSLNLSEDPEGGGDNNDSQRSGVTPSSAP
The experiment in a line: affinity purification with mass spectrometry; SILAC label-swap (forward and reverse); FLAG/HA-RC3H1 purified from NP40 lysis buffer extracts on FLAG magnetic beads, then on HA beads; extracts treated with RNase T1, beads with RNase T1 and RNase I to disrupt RNA-mediated interactions; on-column tryptic digestion, LC-MS/MS.
As for CNOT1 (from UniProt A5YKK6 1-2376), the binding result is reported as “binds”.

In the case of CNOT2 (from UniProt Q9NZN8 1-540), the binding entry is on record as “binds”.

CNOT3 (from UniProt O75175 1-753): the binding entry is on record as “binds”.

For CNOT7 (from UniProt Q9UIV1 1-285), the binding entry is recorded as “binds”.

Take CNOT8 (from UniProt Q9UFF9 1-292): the binding result is listed as “binds”.
